Measurements taken from patent US20240409648A1.
No constants are given. Whether binding was seen depends on the method and setting. Some entries that bind do so weakly or less than the wild type.

T1: recombinantly produced human IL-36R (ECD-extracellular domain: amino acids 20-332 of Genbank Accession #NP_003845) (human) (UniProt Q9HB29)
T1 sequence (looked up): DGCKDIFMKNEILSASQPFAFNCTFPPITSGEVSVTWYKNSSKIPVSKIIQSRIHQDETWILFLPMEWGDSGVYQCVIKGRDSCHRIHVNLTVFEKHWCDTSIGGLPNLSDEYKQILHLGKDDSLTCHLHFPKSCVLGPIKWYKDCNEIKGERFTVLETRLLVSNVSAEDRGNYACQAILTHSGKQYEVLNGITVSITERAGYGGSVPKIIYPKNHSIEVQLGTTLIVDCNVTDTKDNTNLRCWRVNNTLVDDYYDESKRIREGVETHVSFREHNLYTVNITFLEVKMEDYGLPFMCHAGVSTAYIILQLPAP


Molecular target: T1, recombinantly produced human IL-36R (ECD-extracellular domain: amino acids 20-332 of Genbank Accession #NP_003845) (human)
Assay: BLI (Fortebio Octet) selectivity test; also in 50% human serum

Binder	binding
antibody 172C8 (antibody, V domains shown) VH: EVQLQQSGPELVKPGASVKLSCKASGYTFTDNYMNWVRQSHGKSLEWIGRVNPSNGDTKYNQNFKGKATLTVDKSLSTAYMQLNGLTSEDSAVYYCGRTKNFYSSYSYDDAMDYWGQGTSVTVSS VL: DIQMTQSPASQSASLGESVTFTCLASQTIGTWLAWYQQRPGKSPQLLIYAATSLADGVPSRFSGSGSGTQFSFNIRSLQAEDFASYYCQQVYTTPLTFGGGTKLEIK	binds
antibody 67E7 (antibody, V domains shown) VH: EVQLQQSGAEFVRPGASVKFSCTASGFNIKDDYIHWVRQRPEQGLEWVGRIDPANGNTKYAPKFQDKATITADTSSNTAYLQLSSLTSEDTAVYYCAKSFPNNYYSYDDAFAYWGQGTLVTVSA VL: DIQMTQSPASQSASLGESVTFTCLASQTIGTWLGWYQQKPGKSPQLLIYRSTTLADGVPSRFSGSGSGTKFSFKISSLQAADFASYYCQQLYSAPYTFGGGTKLEIR	binds
